From publication PMC7969620
Results are given in words; binding and its absence hold for the method and conditions named. Binding seen in cells or lysates may run through a third protein. Some entries that bind do so weakly or less than the wild type. Tags and fused reporters may be left off the sequences shown.

The chains behind the UniProt entries cited, without tags or fusion partners.
UniProt Q676U5: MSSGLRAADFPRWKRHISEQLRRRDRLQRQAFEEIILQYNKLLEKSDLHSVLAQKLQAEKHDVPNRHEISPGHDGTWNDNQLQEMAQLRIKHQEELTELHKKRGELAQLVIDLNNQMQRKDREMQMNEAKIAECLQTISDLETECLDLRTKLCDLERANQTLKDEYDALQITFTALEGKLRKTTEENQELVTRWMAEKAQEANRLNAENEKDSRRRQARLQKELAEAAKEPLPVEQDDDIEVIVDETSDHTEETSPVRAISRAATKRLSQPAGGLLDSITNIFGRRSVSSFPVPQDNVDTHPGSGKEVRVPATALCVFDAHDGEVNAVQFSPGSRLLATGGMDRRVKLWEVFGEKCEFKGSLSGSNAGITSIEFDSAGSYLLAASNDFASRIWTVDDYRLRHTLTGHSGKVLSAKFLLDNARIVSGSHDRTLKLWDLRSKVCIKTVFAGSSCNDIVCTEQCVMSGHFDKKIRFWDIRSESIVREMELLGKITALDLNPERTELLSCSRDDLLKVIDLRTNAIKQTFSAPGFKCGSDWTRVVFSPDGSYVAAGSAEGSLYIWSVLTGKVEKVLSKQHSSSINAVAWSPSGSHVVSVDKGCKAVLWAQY

How the values were obtained:
GST-Rab26b (human) = target: T1, GST-Rab26b (human) (UniProt Q9ULW5); test: pull-down; GST fusions coupled to GST-Sepharose 4B resin, incubated with supernatants of lysates of transfected 293t cells (20 mM HEPES pH 7.4, 150 mM NaCl, 0.5% Triton X-100) at 4 °C overnight; resin washed three times with lysis buffer containing 500, 300, 100 mM NaCl; bound proteins by western blot; only the target purified
T1 sequence: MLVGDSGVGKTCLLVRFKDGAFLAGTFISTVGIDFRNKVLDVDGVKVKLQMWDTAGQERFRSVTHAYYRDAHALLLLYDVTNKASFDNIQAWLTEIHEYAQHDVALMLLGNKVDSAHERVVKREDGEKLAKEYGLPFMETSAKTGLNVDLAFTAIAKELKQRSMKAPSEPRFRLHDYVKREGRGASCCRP

GST-Rab26 (human) = target: T2, GST-Rab26 (human) (UniProt Q9ULW5); test: as above
T2 sequence: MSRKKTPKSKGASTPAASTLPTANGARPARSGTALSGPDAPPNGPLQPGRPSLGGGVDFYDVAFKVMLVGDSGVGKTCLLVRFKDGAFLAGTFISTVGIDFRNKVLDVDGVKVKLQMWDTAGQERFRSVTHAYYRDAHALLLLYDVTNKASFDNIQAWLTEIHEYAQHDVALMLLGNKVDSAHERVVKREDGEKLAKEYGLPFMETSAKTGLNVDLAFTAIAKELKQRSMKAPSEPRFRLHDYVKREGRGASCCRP

binding (GST-Rab26b (human)): no binding
binding (GST-Rab26 (human)): binds
Substance: ATG16L1 (from UniProt Q676U5 1-607)
